This note sets out measurements from PubChem BioAssay AID1487 (National Center for Advancing Translational Sciences (NCATS), 2009).

This is one part of the list. Further columns of the screen follow, without active or inactive calls. Compounds called inactive in the main read-out are mostly missing here. Potencies come from curve fits of mixed quality, noted in brackets.

The assay is described as follows: qHTS Assay for Modulators of Lamin A Splicing. The conditions noted are these: HeLa LMNA splicing GFP/RFP minigene ratio, 48 h. In a few lines: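 S3 HeLa cells stably expressing lamin A-EGFP splicing minigene plus DsRed2, 600 cells/well, 48 h compound exposure at 37C. Laser-scanning cytometry; analysed as GFP (500-530 nm)/RFP (575-640 nm) total intensity ratio; 0.5% DMSO vehicle.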
In general terms: qHTS replaces the single test concentration by a dilution series.

Setting [1] is: measured here: GFP splicing reporter channel.
Where [2] appears, read: measured here: RFP viability control channel.

As for `CN(C)C(=O)c1ccc(-c2ccc3ncnc(Nc4ccccc4)c3c2)cc1`, the AC50 was 12.6 µM [falling, partial curve] under setting [1] and 12.6 µM [falling, partial curve] under setting [2].
For the compound `O=C(CCl)N(Cc1cccc([N+](=O)[O-])c1)c1cccc(Cl)c1`, the AC50 was 1.78 µM [falling, partial curve, poor fit] under setting [1] and 2.82 µM [falling, partial curve] under setting [2].
In the case of `COc1ccc2c(CC(=O)Nc3cccc(S(=O)(=O)N4CCOCC4)c3)coc2c1`, the AC50 under setting [2] was 12.6 µM [rising, single point].
Turning to `O=C(Oc1ccc(/C=N/Nc2nc(N3CCCCC3)nc(N3CCCCC3)n2)cc1)c1ccco1`, the AC50 is, setting by setting: under setting [1], 0.158 µM [falling, full curve]; under setting [2], 1 µM [falling, full curve].
As for `Cc1ccc(C)c(NS(=O)(=O)c2ccc3c(c2)n(C)c(=O)n3C)c1`, under setting [1], the AC50 is 14.1 µM [rising, single point].
As for `COc1ccc(C2N(Cc3ccccc3)CCN2Cc2ccccc2)cc1[N+](=O)[O-]`, the concentration at half-maximal activity (AC50) by setting is: under setting [1], 5.01 µM [falling, full curve, poor fit]; under setting [2], 5.01 µM [falling, full curve, poor fit].
Regarding `COc1cccc(-c2cc(C(=O)N3CCN(C(c4ccccc4)c4ccccc4)CC3)no2)c1`, under setting [2], the AC50 is 7.94 µM [rising, partial curve].
Turning to `CCn1c(SCC(=O)N2CCC(C)CC2)nnc1-c1ccccc1O`, the half-maximal activity concentration (AC50) under setting [1] is 0.316 µM [rising, partial curve, poor fit].
Consider `O=S(=O)(Nc1cccc(-c2ccc(N3CCCCCC3)nn2)c1)c1ccccc1`, for which the concentration at half-maximal activity (AC50) under setting [1] was 28.2 µM [falling, partial curve, poor fit] and the AC50 under setting [2] is 25.1 µM [falling, partial curve, poor fit].
In the case of `CCCCOc1ccc(C(=O)Nc2ccncc2)cc1`, the AC50 under setting [1] was 2.82 µM [rising, full curve] and the AC50 under setting [2] is 2.51 µM [rising, full curve].
In the case of `Cc1ccc(S(=O)(=O)NCCc2sc3nc(-c4ccccc4)nn3c2C)cc1C`, under setting [2], the concentration at half-maximal activity (AC50) was 0.355 µM [rising, partial curve].
As to `O=C(CCS(=O)(=O)c1ccccc1)Nc1cccc(-c2nc3ccccc3s2)c1`, the AC50 by setting is: under setting [1], 4.47 µM [falling, partial curve]; under setting [2], 0.178 µM [falling, full curve, poor fit].
As to `CCOCCCNC(=O)Nc1cc(C(=O)NCc2ccc(C(C)C)cc2)ccc1N1CCCC1`, the AC50 under setting [1] is 35.5 µM [falling, single point].
As to `CC(=O)c1ccc(C(=O)N(Cc2cccnc2)c2nc3c(Cl)cccc3s2)cc1`, under setting [2], the AC50 is 11.2 µM [rising, partial curve, poor fit].
In the case of `COc1cc(CN2CCCC(C(=O)c3ccccc3SC)C2)cc(OC)c1` (stereo unspecified), the AC50 is, setting by setting: under setting [1], 10 µM [falling, partial curve, poor fit]; under setting [2], 12.6 µM [falling, partial curve, poor fit].
As to `CC1CC(C)CN(c2oc(Cc3ccccc3)nc2C#N)C1` (stereo unspecified), the concentration at half-maximal activity (AC50) under setting [1] was 10 µM [rising, partial curve, poor fit] and the AC50 under setting [2] is 2.24 µM [rising, full curve, poor fit].
`CCCCCCCCCCCCCCCC(=O)OC(CC(=O)O)C[N+](C)(C)C` (stereo unspecified): the concentration at half-maximal activity (AC50) reads like this: under setting [1], 25.1 µM [falling, single point]; under setting [2], 12.6 µM [falling, partial curve, poor fit].
In the case of `O=S(=O)(Nc1ccccn1)c1ccc(C2CCCCC2)cc1`, under setting [2], the AC50 was 15.8 µM [rising, single point].
Take `O=C(NCCc1c[nH]c2ccccc12)/C(=C\c1cccnc1)NC(=O)c1ccco1`: the half-maximal activity concentration (AC50) under setting [2] is 11.2 µM [rising, partial curve, poor fit].
As to `O=c1c2[nH]c3ccc(Br)cc3c2ncn1CCCn1ccnc1`, under setting [1], the concentration at half-maximal activity (AC50) is 35.5 µM [falling, single point].
Regarding `COc1ccc(C)cc1S(=O)(=O)N1CCC(C(=O)NCCc2ccccc2)CC1`, the AC50 under setting [1] was 20 µM [rising, single point].
Turning to `COc1ccc(-n2c(SCC(=O)Nc3nnc(C)s3)nc3c([nH]c4ccccc43)c2=O)cc1`, the AC50 reads like this: under setting [1], 0.447 µM [falling, full curve, poor fit]; under setting [2], 0.794 µM [falling, full curve, poor fit].
Consider `COc1cccc(CNc2ncc(-c3ccc(Br)cc3)n2C)c1`, for which, under setting [1], the concentration at half-maximal activity (AC50) is 1.41 µM [falling, full curve].
On to `Cn1c(Cn2cnc3ccccc32)nc2ccccc21`, for which the AC50 was 20 µM [rising, partial curve, poor fit] under setting [1] and 14.1 µM [rising, partial curve] under setting [2].
As for `CCOC(=O)c1cc(-c2ccccc2)sc1NC(=O)C(C)Sc1nnc(N)s1` (stereo unspecified), the AC50 under setting [2] is 35.5 µM [rising, single point].
For the compound `COc1cccc2sc(N3CCN(C(=O)CS(=O)(=O)c4ccc(Cl)cc4)CC3)nc12`, the AC50 under setting [1] was 31.6 µM [falling, single point].
Turning to `COc1ccc(CN(C(=O)CSc2nnc(-c3ccccc3C)o2)c2ccc(F)cc2)cc1`, under setting [2], the concentration at half-maximal activity (AC50) was 22.4 µM [rising, single point].
Turning to `CCn1ccnc1CNC(=O)CC1C(=O)NCCN1Cc1ccccc1F` (stereo unspecified), the AC50 under setting [1] is 0.0708 µM [falling, full curve, poor fit] and the half-maximal activity concentration (AC50) under setting [2] is 0.0251 µM [falling, full curve, poor fit].
Regarding `Cc1nn(C)c(C)c1C1C(C#N)=C(N)OC2=C1C(=O)CCC2` (stereo unspecified), the AC50 under setting [2] was 12.6 µM [rising, partial curve, poor fit].
For the compound `CCOC(=O)c1ccccc1Nc1cc(C)nc2nc(-c3ccco3)nn12`, the half-maximal activity concentration (AC50) under setting [2] was 1.12 µM [rising, full curve, poor fit].
In the case of `CC1(C)C/C(=N\NC(=S)Nc2ccccc2F)c2cc(O)ccc2O1`, the AC50 under setting [1] is 0.00708 µM [rising, full curve].
Consider `COc1cccc(N2CCN(c3c(C#N)c(C(F)(F)F)nn3C)CC2)c1`, for which, under setting [2], the half-maximal activity concentration (AC50) is 14.1 µM [rising, single point].
Regarding `CCn1c(SCC(=O)N=Nc2c(O)[nH]c3ccccc23)nc2ccccc21`, the concentration at half-maximal activity (AC50) under setting [2] was 0.1 µM [rising, full curve, poor fit].
Turning to `O=C(NCCCN1CCN(c2ccccc2)CC1)c1nnc(Cc2ccc(F)cc2)o1`, the AC50 runs as follows: under setting [1], 8.91 µM [falling, partial curve, poor fit]; under setting [2], 35.5 µM [falling, partial curve, poor fit].
Consider `O=C(N/N=C/c1cc(Br)ccc1O)c1ccccc1Cl`, for which the AC50 was 35.5 µM [rising, single point] under setting [1] and 35.5 µM [rising, single point] under setting [2].
In the case of `CC(C)c1ccc(/C=N/NC(=O)CN(c2cccc(Cl)c2Cl)S(C)(=O)=O)cc1`, the AC50 is, setting by setting: under setting [1], 35.5 µM [falling, single point]; under setting [2], 35.5 µM [falling, single point].
On to `CCOc1ccc(CC(=O)Nc2ccc(NC(=O)c3ccco3)cc2)cc1OCC`, for which, under setting [2], the AC50 was 11.2 µM [rising, partial curve, poor fit].
As to `COc1cc(C(=O)N2CCN(Cc3ccccc3C(F)(F)F)CC2)cc(OC)c1OC`, the AC50 was 31.6 µM [rising, single point] under setting [1] and 31.6 µM [rising, single point] under setting [2].
Take `O=C(COc1ccccc1F)N1CCN(S(=O)(=O)/C=C/c2ccccc2)CC1`: under setting [2], the concentration at half-maximal activity (AC50) was 12.6 µM [rising, single point].
Turning to `COC(=O)c1cn(NC(=O)c2cnccn2)c(=O)c2ccccc12`, the AC50 is 22.4 µM [rising, single point] under setting [1] and 22.4 µM [rising, partial curve] under setting [2].
In the case of `O=C(Nc1cccc(-c2nc3ncccc3o2)c1)c1cc2ccccc2o1`, the half-maximal activity concentration (AC50) under setting [1] is 35.5 µM [rising, single point] and the AC50 under setting [2] was 22.4 µM [rising, single point].
As for `CC(=O)c1cc2c(cc1N/C(=N/S(=O)(=O)c1ccccc1)c1ccc(Cl)cc1)OCO2`, the AC50 under setting [2] was 4.47 µM [rising, partial curve, poor fit].
For `COc1ccc(NC(=O)c2cccc(S(=O)(=O)Nc3ccc(Br)cc3)c2)cn1`, under setting [2], the concentration at half-maximal activity (AC50) is 3.98 µM [rising, full curve].
For `CC(C)c1ccc(NC(c2nnc(-c3ccccc3)o2)c2ccc(F)cc2Cl)cc1` (stereo unspecified), the concentration at half-maximal activity (AC50) under setting [2] was 11.2 µM [rising, partial curve].
Consider `CCOc1ccc(C(=O)NCc2ccncc2)cc1`, for which the AC50 is, setting by setting: under setting [1], 17.8 µM [rising, single point]; under setting [2], 12.6 µM [rising, single point].
In the case of `Cc1cc(C)c(OCC(=O)Nc2nc(-c3ccccn3)cs2)c(C)c1`, the half-maximal activity concentration (AC50) under setting [2] is 0.0224 µM [rising, full curve, poor fit].
In the case of `Cc1cc(C)cc(N(C(=O)CCC(=O)Nc2ccccn2)C(C(=O)NC(C)C)c2ccc(O)cc2)c1` (stereo unspecified), the half-maximal activity concentration (AC50) under setting [2] is 0.00316 µM [rising, full curve, poor fit].
Turning to `Cc1ccccc1Nc1nc(N)nc(CSc2nnc3sc4ccccc4n23)n1`, the AC50 under setting [2] was 2.51 µM [falling, full curve, poor fit].
As for `O=C(C1CCCO1)N1CCN(C(=S)Nc2ccc(Cl)c(Cl)c2)CC1` (stereo unspecified), the AC50 under setting [1] was 10 µM [rising, partial curve, poor fit] and the AC50 under setting [2] is 11.2 µM [rising, partial curve].
Consider `CCCCC(=O)NC(c1ccco1)c1c(O)ccc2ccccc12` (stereo unspecified), for which the half-maximal activity concentration (AC50) under setting [2] was 22.4 µM [rising, single point].
Regarding `C=CCN1C(=O)S/C(=C\c2ccc(N3CCOCC3)cc2C)C1=O`, the AC50 under setting [1] is 12.6 µM [rising, single point].
On to `CC(=O)c1cc(-c2ccccc2)n(CCC(=O)Nc2ccc(C(C)C)cc2)c1C`, for which the half-maximal activity concentration (AC50) by setting is: under setting [1], 7.94 µM [rising, partial curve]; under setting [2], 12.6 µM [rising, single point].
On to `COc1ccccc1OCCNc1cc(N2CCCCC2)ccc1[N+](=O)[O-]`, for which the concentration at half-maximal activity (AC50) reads like this: under setting [1], 10 µM [rising, single point]; under setting [2], 14.1 µM [rising, partial curve].

As usually defined, the AC50 is the midpoint of the concentration-response curve, whichever way the signal moves.
